These results are taken from PubChem BioAssay AID1508600 (Functional Genomics Laboratory (NCATS/FGL), 2020).

In all, about 53,000 sequences went through this assay and about 3,700 (7%) were called active.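 How the source made its calls: active means gene knockdowns whose robust z-score for IL-1 alpha signal is at least 2 or at most -2, so actives lie on both sides; inactive means the rest.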 This is one part of the list.

This test can be described thus: Components of the Cytosolic LPS Sensing Pathway: Gene Identification via Genome-wide siRNA Screen.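 Further: robust z of the log signal after scaling to non-targeting control siRNA wells of the plate.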 To be noted: RAW264.7 macrophages, IL-1a HTRF, actives lie on both sides, screened at 100 nM (by protocol), cells primed 5 h with Pam3CSK4 first. Put shortly: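 Using IL-1a HTRF as read-out, the screen measured release from RAW264.7 cells after 48h siRNA knockdown (100 nM), 5 h Pam3CSK4 priming and 24 h cytosolic LipidA. Values were expressed relative to negative-control wells as robust z-scores.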
For the sequence GCAGAGCGAUUAUAUGGACTT against Rnpepl1, the z-score was inactive: -0.308.

Regarding GGAGGCUCUAAAGAGACACTT against Olfr498, the z-score was inactive: 1.36.

Take CCCAAACAUUGAAGCUCUGTT against Fez1: the z-score is inactive: 0.539.

For the sequence GCUGCUUCAUGCAAGACCUTT against Zswim1, the z-score is inactive: -0.591.

Take GGAUGAUGGAAUAUCUCAATT against Pcdhb10: the z-score is inactive: 1.01.

On to GGAGGAAUUCUCCUUAUUCTT against Cnnm3, for which the z-score was inactive: 0.718.

On to GGUUCUGUACCAAUGAGUCTT against Lhpp, for which the z-score is inactive: -1.65.

As to GGUUUAAGAAGAUUGCUUATT against Apool, the z-score is inactive: -0.516.

Regarding GGAGCUUGAAUAUGUUCUATT against Capn9, the z-score was inactive: 0.0695.

On to GGAUUUCGAGAACAACCUCTT against Cd55, for which the z-score was inactive: 0.582.

As to CGGAUUUACACCAGUACCATT against Zfp868, the z-score is inactive: -0.187.

Regarding CCAAAACACUACCAAUAAUTT against Tinag, the z-score is inactive: 0.329.

Regarding GGCAGAUGCUGAAACACUGTT against Tasor2, the z-score is inactive: 0.794.

Take GCCGGAUGAAGGACUUUACTT against Dcc: the z-score was inactive: -1.98.

Regarding GCCCAAUUUUACAUUGUUUTT against Gpx1, the z-score was inactive: 1.24.

Take GGUUUUCAUUGCCCAGUCCTT against Rbm45: the z-score is inactive: -0.143.

Turning to CCUUCCAAUCUGGUUAAGUTT against Spock1, the z-score was inactive: 1.26.

Consider GGUAUUCUUCGAAUUUUUCTT against Egln1, for which the z-score is inactive: -0.691.

Take GGAUGGUAGCAGCAACAACTT against Grem2: the z-score was inactive: -1.91.

In the case of GGAUGAUAUAGUUUGUACCTT against Kctd7, the z-score was inactive: 0.258.

Regarding GCAGAUGGUACUACUGAGCTT against Egfl7, the z-score was inactive: -1.71.

With GCUUCUCUACACCACAGACTT against Olfr796, the z-score was inactive: -0.0426.

For the sequence GGACUUCAGUUACAACCGGTT against Nr1h3, the z-score was inactive: -0.174.

Turning to GGCCGUGUUAAGGAAUCUGTT against Cidea, the z-score is inactive: 0.653.

With GCCAAAGCAAGAUCCCACUTT against Clec18a, the z-score was inactive: -0.363.

As to GCAAAGCUACUCACUUCUUTT against Nck2, the z-score was inactive: 1.23.

Consider GCAGAGAUUACACAAAUAGTT against Brd7, for which the z-score was inactive: -0.513.

On to CGUCCCUAGUAUAAAAAGATT against Cxxc5, for which the z-score is inactive: -0.273.

As to GGACUGUUCUUUCAAUAAGTT against Disp2, the z-score was inactive: 0.294.

As for “GGCUCUAUCUUAAAAUAACTT against 4930542C12Rik”, the z-score is inactive: 0.125.

With CCCAAUUAAAUUUGAGGGUTT against Pdia4, the z-score was inactive: 0.592.

On to GGAUAAAAUUGCUUUACUGTT against Srek1ip1, for which the z-score is active: 2.63.

Take CCGAGAACUUGACUCUUCATT against Ppp1r15b: the z-score is inactive: 0.923.

With GGCUAGAAUUCAGAGUUAATT against Abca13, the z-score is inactive: 0.188.

Consider GACUGCUAAACAAUAUGCUTT against Shtn1, for which the z-score was inactive: 0.116.

As for GGCUAUGUCAUUUACAGGATT against Rpl15, the z-score was inactive: 0.838.

For the sequence CCAGGUGUAACAAAAAAGATT against Dtl, the z-score is inactive: 1.09.

For the sequence GGUAUUCACUGUAUUUAACTT against Tspan8, the z-score is inactive: 1.97.

GGCUGAAAGCAAAACUUAATT against Klhl4: the z-score was inactive: 1.02.

For GGAGGUUCUUCAGUACUGCTT against Aplp2, the z-score was inactive: 1.64.

As for GCUGUAGCUUCGGGCAAAGTT against Crybg3, the z-score was inactive: 0.0447.

As for GCAGGAGCUGAAGCAAAGATT against Svbp, the z-score was inactive: -0.392.

Regarding GGAAAUAAAUGAGUGUUUGTT against Slc35c2, the z-score was inactive: -0.0605.

CCUAAAGCAUUGUUCAUAGTT against Ddo: the z-score was inactive: 0.866.

For GGAUGAGCUAAAUAAAGCUTT against Slc6a15, the z-score is inactive: -0.279.

GCAAUGUGUAUCAGCCGACTT against Gprc5b: the z-score is active: 3.38.

As for CGACAGACAUCGCUAUAAUTT against Gm11437, the z-score is inactive: -0.296.

Consider GGACUUUGUAACUAAUACCTT against Slco2b1, for which the z-score was inactive: 0.914.

Take GAUAUGUGUACACUUCUGCTT against Vmn1r218: the z-score was active: -2.08.

Turning to GGAUCGAUAAACAAAUAAGTT against Ano4, the z-score is inactive: 0.557.

As for GGAAAGAAACAAGACAGAATT against Cul3, the z-score was inactive: -0.211.

As for GGAUCGUGAGGAUCAAUCCTT against Myh14, the z-score was inactive: -0.0513.

Turning to GACAGGUCAUGAAAAUGAGTT against Smurf2, the z-score was inactive: 0.772.

For the sequence GCAAGAUGAGAAGGAUUUUTT against Zfp691, the z-score is inactive: 0.591.

In the case of CCUCUGAGAAGGAGAUACATT against Hsd17b10, the z-score was inactive: -0.952.

As to GGAGCAAGGAAAGUGGCUGTT against Oma1, the z-score is inactive: -0.0166.

As to GGAUGAUAUAGUAUCUACGTT against Pyurf, the z-score was inactive: 1.39.

Consider GGUUGAAUUAUACACAAAGTT against Tmem202, for which the z-score is inactive: -8.3e-05.

For the sequence GCCAACAAUAUAAUUCAAGTT against Abca5, the z-score was inactive: 1.64.

With GCAUACGAUAUCACCAUAUTT against Dsg1a, the z-score was inactive: 0.173.

Regarding GGUAGAAGAAUUCAGUUUUTT against Smpd3, the z-score was inactive: 0.528.

Regarding GCUCAGUCUCUUGGGUGGUTT against Cel, the z-score was active: 2.27.

On to GGCUUUCUCACAUAAGAGCTT against Zbtb22, for which the z-score is inactive: -1.58.

With GGGUAUUAUAAAAACCCAGTT against Noct, the z-score is inactive: 0.57.

Turning to GGCAACAAUAGUUCAGAAGTT against Rps6ka5, the z-score is inactive: 1.5.

As for GCUAGCCAUGGUUACCCACTT against Slc39a3, the z-score is inactive: -0.818.

As to GAUGCUGUAAUCUUGUGAATT against Lce1a1, the z-score was inactive: 1.14.

As for CCUGUUAAUUGAUUACCUUTT against Pla2r1, the z-score is inactive: 1.03.

In the case of CCUCGUUACAUCCUCCCUGTT against Pold1, the z-score is inactive: -0.142.

In the case of CCUCCAAGAAGGAUUCCAGTT against Lmf2, the z-score was inactive: -1.34.

For CCAACUUAUCAACAUCCGGTT against Plekha6, the z-score is inactive: -0.0445.

For the sequence GGAAAAAGCAUAGAUAGGUTT against Amigo3, the z-score is inactive: -0.347.

Regarding GGAGAAAAUAAACUCUCUCTT against Capns1, the z-score is inactive: 1.82.

For the sequence GGAAAAAUCCAAGAAGCAATT against Zc3h11a, the z-score was inactive: -1.09.

As to GCAUUUCUUUCUUGCCUUCTT against Olfr1276, the z-score was inactive: 0.128.

GGCAACAUGAUGAUUAUAGTT against Olfr1220: the z-score is inactive: -0.359.

With GGCCAUCAAAUCUAUAUACTT against Sucnr1, the z-score is inactive: -0.216.

With GGAAGAGCUUCAUCAGCCATT against Acoxl, the z-score was inactive: 0.0267.

As for GGCUGAGUUUAUUUUUGAGTT against Heatr5a, the z-score is inactive: -0.0804.

Consider GAUUUUGGGAAUAUAGUGCTT against Klra16, for which the z-score was inactive: 0.451.

Turning to GGAGGUGUUUUAUAUGAACTT against Efcab7, the z-score was inactive: 0.957.

Turning to GGCACUGAUAAGAAGUACCTT against Dnah1, the z-score was inactive: 0.772.

With GCUCAGAAAUCGGCUCAGATT against Ssbp2, the z-score was inactive: -1.66.

As for GGUGGUUGAAAAGAAAACUTT against Hspa5, the z-score was inactive: -1.02.

As for GCGAAUUGAAGGCUCGGGATT against Dnm2, the z-score is inactive: 0.164.

In the case of GCUAUCACCACAACUACCATT against Cyp46a1, the z-score was inactive: -0.554.

Regarding CCGUGUCCAACAUUCUCUCTT against Tas1r2, the z-score is inactive: -1.1.

In the case of GCAGAUCAGAAGAAAUUUGTT against Jmy, the z-score was inactive: 1.22.

Regarding GCAGCAACAAGAAAUCAGCTT against Bpifa3, the z-score was inactive: 0.308.

With GGAGAAAAUGCAGUGUGAGTT against Llph, the z-score is inactive: -0.673.

With CGAUUUAUUCUGCUAUUGGTT against Pla2g7, the z-score is inactive: 0.61.

For the sequence GCAUCCCUUCCGAGAAACATT against Bag6, the z-score was inactive: 0.916.

On to GCAGGAAGUAAAAUCUCUUTT against Tmem183a, for which the z-score is inactive: 0.707.

In the case of GCGUAUAUAUACUUCACUGTT against Stxbp3, the z-score was inactive: -0.458.

CCGUAAUCUGGUUGGAUUUTT against Ccdc87: the z-score is inactive: 1.92.

With GGAGCCACCACAACUAUAATT against F2rl2, the z-score is inactive: 0.394.

Consider GCAAAACAGUGUUCUAUUATT against Skap2, for which the z-score was inactive: 0.135.

As for GGAUGCAUUCAUGAGUAUUTT against Ifng, the z-score is inactive: 0.325.

CCCAAGAAGUUUUAUUCUGTT against Zbbx: the z-score is inactive: -0.221.

For GGGAUUUAACAACAUGUAATT against Slc20a1, the z-score was inactive: 1.54.

On to GGUGAACAUGCGCAUCAAATT against Ugt1a5, for which the z-score was inactive: 0.949.

With GGCAGAGAGAUGUUACAAGTT against Ccl8, the z-score is inactive: 0.408.

In the case of CGUAUUGUUUCCUAGCACATT against Arhgef38, the z-score was active: 2.08.

For GGGAUUAAGUCACCUCUGUTT against Rab15, the z-score was inactive: -0.143.

As for CCCUGAACGAAUAAUCGGCTT against Cbx3, the z-score is inactive: 0.512.

As for GCCACUAAAUCCUGUUUCCTT against Ydjc, the z-score was inactive: -0.0858.

Regarding GGCUCUAUUCAAUGCUAUUTT against Gm5094, the z-score is inactive: 0.895.
